Test results taken from the supplement of paper PMC7666118.
The other results are listed elsewhere or left out.

Sequences of proteins named here, by UniProt entry; tags and fusion partners are left off. A change or cut given only in a name is not applied to a line headed by its entry.
UniProt Q9BQ69: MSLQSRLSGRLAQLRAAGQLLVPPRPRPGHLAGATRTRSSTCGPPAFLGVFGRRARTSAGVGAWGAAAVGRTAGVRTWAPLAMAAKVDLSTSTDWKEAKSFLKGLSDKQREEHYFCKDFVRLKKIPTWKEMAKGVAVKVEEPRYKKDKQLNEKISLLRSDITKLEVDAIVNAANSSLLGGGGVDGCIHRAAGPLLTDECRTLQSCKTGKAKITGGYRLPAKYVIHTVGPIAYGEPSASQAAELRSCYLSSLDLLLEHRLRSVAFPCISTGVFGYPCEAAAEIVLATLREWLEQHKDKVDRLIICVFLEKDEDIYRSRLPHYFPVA
UniProt Q5U5X0: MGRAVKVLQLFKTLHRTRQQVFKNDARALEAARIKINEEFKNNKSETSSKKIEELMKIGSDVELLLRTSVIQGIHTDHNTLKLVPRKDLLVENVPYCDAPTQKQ
UniProt Q6P9B6: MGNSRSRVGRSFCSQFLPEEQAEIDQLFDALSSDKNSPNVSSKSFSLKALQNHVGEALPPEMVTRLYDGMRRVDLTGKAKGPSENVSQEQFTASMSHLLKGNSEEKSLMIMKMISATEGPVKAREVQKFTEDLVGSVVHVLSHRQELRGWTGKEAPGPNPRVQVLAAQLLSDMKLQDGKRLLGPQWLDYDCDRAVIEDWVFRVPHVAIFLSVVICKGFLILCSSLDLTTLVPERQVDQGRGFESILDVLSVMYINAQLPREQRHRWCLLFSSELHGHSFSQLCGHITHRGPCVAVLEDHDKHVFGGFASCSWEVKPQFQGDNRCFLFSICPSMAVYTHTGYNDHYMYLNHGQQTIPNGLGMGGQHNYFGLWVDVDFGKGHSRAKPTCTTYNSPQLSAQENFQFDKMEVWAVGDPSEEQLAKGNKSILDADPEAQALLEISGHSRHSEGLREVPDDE
UniProt P48059, whole entry: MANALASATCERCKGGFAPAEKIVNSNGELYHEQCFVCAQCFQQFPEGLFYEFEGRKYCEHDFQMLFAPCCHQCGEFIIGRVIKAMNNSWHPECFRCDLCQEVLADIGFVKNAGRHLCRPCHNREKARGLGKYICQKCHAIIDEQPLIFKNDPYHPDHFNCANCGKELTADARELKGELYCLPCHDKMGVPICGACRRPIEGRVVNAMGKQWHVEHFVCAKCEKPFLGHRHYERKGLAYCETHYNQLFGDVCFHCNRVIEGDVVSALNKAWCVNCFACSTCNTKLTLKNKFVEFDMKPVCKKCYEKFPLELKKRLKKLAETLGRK
UniProt Q8WV93: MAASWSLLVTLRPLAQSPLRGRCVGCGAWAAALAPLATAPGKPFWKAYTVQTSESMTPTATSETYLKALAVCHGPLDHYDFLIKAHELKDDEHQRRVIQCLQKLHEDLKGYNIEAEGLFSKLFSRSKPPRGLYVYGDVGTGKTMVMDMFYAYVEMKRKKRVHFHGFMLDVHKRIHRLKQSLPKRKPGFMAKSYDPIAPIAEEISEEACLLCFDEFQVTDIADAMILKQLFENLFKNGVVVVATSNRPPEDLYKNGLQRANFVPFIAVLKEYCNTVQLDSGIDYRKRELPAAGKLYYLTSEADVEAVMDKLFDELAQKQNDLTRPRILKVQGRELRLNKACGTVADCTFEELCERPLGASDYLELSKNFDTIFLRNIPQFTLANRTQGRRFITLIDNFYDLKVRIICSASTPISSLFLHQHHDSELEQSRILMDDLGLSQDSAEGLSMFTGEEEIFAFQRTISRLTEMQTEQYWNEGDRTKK
UniProt Q9H9A6: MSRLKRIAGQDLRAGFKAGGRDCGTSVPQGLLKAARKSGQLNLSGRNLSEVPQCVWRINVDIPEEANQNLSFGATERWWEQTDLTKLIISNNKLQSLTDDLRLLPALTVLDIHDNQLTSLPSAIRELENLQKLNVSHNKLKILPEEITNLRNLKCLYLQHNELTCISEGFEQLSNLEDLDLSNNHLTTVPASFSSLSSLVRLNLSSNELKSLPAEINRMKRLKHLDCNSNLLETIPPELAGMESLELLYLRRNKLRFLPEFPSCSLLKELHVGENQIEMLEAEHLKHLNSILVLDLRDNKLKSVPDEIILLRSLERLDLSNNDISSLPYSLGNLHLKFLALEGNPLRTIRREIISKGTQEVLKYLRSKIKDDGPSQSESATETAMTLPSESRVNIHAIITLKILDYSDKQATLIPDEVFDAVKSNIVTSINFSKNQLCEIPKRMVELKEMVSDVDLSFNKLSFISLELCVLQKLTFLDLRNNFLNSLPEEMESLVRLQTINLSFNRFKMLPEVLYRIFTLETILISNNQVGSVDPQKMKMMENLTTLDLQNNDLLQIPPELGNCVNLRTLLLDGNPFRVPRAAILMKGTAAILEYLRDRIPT
UniProt Q9Y3D7: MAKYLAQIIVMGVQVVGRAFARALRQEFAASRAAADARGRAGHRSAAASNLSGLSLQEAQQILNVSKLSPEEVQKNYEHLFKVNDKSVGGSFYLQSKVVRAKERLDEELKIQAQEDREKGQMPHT
UniProt Q9ULH0: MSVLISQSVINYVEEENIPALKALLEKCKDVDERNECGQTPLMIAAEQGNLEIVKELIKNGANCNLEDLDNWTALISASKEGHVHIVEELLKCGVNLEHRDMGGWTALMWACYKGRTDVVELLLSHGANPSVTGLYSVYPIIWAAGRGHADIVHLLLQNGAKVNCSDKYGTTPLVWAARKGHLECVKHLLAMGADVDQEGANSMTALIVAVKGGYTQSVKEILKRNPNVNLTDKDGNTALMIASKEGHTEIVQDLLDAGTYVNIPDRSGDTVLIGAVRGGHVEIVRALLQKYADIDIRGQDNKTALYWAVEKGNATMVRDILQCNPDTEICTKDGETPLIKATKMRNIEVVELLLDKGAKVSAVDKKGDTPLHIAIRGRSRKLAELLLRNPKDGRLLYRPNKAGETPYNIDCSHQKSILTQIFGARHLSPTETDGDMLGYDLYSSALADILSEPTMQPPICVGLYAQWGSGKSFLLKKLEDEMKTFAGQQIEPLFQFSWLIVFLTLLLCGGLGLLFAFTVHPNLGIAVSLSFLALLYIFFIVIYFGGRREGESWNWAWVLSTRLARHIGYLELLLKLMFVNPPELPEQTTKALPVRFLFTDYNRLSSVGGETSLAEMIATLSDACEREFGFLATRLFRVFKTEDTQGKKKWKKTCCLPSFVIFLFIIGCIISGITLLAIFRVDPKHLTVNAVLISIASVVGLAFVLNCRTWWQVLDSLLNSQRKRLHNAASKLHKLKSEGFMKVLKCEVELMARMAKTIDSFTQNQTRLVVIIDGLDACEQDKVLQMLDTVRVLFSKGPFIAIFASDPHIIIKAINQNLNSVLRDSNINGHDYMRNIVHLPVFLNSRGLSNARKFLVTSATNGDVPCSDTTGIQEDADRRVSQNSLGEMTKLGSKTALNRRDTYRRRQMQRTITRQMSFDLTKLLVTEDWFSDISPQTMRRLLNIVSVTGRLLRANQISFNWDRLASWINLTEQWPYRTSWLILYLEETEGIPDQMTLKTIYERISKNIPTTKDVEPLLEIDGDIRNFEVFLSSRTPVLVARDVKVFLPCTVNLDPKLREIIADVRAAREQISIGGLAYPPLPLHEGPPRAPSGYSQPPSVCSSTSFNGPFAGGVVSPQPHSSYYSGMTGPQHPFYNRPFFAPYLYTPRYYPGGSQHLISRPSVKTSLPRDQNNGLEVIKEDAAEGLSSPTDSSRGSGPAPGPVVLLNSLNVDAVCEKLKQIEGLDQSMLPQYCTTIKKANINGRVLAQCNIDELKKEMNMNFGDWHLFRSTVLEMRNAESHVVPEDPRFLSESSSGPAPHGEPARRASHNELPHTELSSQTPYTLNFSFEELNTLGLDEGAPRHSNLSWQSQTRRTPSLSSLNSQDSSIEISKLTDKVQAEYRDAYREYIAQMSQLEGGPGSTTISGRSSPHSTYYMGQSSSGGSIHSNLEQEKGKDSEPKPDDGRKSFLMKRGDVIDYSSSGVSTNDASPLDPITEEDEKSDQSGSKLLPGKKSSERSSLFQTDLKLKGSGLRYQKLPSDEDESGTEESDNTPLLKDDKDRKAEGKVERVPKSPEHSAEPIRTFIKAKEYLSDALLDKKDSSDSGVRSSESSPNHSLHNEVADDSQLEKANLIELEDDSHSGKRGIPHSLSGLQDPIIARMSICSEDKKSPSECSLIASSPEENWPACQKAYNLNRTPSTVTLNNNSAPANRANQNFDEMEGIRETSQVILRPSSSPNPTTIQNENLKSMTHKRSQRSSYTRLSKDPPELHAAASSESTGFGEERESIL
UniProt P48449: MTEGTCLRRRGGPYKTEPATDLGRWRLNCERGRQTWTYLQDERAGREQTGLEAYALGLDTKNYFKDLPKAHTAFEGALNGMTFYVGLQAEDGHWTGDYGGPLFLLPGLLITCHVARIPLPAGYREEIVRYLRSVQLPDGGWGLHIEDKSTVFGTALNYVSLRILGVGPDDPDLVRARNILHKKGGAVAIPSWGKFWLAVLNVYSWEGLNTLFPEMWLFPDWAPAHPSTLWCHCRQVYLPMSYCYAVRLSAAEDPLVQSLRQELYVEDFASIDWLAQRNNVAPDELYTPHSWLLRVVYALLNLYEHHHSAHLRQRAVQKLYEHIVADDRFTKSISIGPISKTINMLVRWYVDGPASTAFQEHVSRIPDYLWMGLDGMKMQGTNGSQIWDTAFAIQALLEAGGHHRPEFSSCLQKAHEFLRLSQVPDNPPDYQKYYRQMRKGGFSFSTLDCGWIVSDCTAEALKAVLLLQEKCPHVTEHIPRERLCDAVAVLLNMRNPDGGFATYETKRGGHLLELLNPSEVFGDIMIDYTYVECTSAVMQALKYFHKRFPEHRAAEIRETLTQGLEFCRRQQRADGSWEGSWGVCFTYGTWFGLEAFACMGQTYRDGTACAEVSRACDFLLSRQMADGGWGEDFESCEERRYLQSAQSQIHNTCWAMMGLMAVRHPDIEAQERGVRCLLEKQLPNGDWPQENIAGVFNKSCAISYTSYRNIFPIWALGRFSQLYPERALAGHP
UniProt Q96EK9: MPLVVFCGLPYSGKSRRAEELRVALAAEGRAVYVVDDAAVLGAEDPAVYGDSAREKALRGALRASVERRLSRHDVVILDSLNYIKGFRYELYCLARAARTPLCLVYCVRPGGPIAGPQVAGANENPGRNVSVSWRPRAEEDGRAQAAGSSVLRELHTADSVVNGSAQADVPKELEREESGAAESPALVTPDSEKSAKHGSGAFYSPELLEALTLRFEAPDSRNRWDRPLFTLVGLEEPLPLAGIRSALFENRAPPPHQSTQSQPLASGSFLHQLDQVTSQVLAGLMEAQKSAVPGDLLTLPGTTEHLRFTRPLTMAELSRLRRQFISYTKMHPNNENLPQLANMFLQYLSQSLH
UniProt Q15345: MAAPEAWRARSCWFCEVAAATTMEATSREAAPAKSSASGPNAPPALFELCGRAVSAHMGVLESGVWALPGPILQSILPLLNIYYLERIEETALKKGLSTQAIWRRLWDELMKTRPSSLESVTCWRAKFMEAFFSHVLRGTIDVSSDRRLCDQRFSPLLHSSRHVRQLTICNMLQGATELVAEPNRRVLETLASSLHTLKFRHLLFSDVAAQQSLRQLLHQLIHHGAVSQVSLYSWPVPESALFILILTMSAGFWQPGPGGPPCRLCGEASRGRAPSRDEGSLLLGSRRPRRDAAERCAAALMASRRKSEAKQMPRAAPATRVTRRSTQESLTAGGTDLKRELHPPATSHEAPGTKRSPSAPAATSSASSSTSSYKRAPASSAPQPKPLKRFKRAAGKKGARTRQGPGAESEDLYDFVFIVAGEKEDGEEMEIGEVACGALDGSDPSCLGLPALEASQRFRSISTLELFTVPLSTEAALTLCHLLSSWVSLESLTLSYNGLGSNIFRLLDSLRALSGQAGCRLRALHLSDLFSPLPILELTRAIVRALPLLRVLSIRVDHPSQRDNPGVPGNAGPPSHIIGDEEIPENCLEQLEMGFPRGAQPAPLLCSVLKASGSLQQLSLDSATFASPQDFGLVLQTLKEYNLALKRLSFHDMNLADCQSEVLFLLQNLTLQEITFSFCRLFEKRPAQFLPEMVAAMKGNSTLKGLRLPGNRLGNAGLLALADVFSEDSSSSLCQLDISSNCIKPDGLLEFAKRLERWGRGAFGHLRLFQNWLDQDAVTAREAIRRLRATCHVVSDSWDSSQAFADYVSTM
UniProt O60664: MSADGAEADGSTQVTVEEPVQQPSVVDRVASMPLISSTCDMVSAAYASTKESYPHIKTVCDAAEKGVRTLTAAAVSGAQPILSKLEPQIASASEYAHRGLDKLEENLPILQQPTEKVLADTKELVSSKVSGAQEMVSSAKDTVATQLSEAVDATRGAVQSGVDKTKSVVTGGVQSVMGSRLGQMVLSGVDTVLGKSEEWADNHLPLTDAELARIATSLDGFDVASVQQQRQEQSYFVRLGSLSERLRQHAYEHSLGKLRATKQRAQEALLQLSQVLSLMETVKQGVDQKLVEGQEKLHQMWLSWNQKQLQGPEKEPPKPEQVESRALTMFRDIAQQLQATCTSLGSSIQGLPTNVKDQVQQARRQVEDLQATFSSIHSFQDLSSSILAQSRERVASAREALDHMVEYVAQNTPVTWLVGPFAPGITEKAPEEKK

Compound: COc1ccc(Cn2ccc3ccc(C(=O)NO)cc32)cc1
Experiment: dose-dependent thermal stabilisation call (2D-TPP, DLPTP, 10% FDR) (binary (1 = stabilised)); higher = stabilised by the compound
Details: system: HL-60 intact cells; concentration range 0.04-10 µM

Row | Target | dose-dependent thermal stabilisation call
1 | KLHL18 (UniProt O94889) | inactive: 0
2 | LDHB (UniProt P07195) | inactive: 0
3 | KIF15 (UniProt Q9NS87) | inactive: 0
4 | KIFC1 (UniProt Q9BW19) | inactive: 0
5 | LARS2 (UniProt Q15031) | inactive: 0
6 | LAPTM5 (UniProt Q13571) | inactive: 0
7 | MADD (UniProt Q8WXG6) | inactive: 0
8 | LOC26010 | inactive: 0
9 | MACROD1 (UniProt Q9BQ69) | inactive: 0
10 | LRRC8A (UniProt Q8IWT6) | inactive: 0
11 | LRRC57 (UniProt Q8N9N7) | inactive: 0
12 | LYRM7 (UniProt Q5U5X0) | inactive: 0
13 | LRP6 (UniProt O75581) | inactive: 0
14 | KIAA1468 (UniProt Q9P260) | inactive: 0
15 | KIAA0892 (UniProt Q9Y6X3) | inactive: 0
16 | KIAA1609 (UniProt Q6P9B6) | inactive: 0
17 | LIMS1 (UniProt P48059) | inactive: 0
18 | LACE1 (UniProt Q8WV93) | inactive: 0
19 | LPIN1 (UniProt Q14693) | inactive: 0
20 | KIAA1109 (UniProt Q2LD37) | inactive: 0
21 | LOC387787 | inactive: 0
22 | KIAA1033 (UniProt Q2M389) | inactive: 0
23 | LRRC40 (UniProt Q9H9A6) | inactive: 0
24 | MAGMAS (UniProt Q9Y3D7) | inactive: 0
25 | LUZP1 (UniProt Q86V48) | inactive: 0
26 | KIF2C (UniProt Q99661) | inactive: 0

Row | Target | dose-dependent thermal stabilisation call
27 | KLHL11 (UniProt Q9NVR0) | inactive: 0
28 | KLHL7 (UniProt Q8IXQ5) | inactive: 0
29 | LSM1 (UniProt O15116) | inactive: 0
30 | LEPRE1 (UniProt Q32P28) | inactive: 0
31 | LIMA1 (UniProt Q9UHB6) | inactive: 0
32 | LMO7 (UniProt Q8WWI1) | inactive: 0
33 | KIDINS220 (UniProt Q9ULH0) | inactive: 0
34 | LCLAT1 (UniProt Q6UWP7) | inactive: 0
35 | MALT1 (UniProt Q9UDY8) | inactive: 0
36 | LSS (UniProt P48449) | inactive: 0
37 | LAMC1 (UniProt P11047) | inactive: 0
38 | KRR1 (UniProt Q13601) | inactive: 0
39 | LIMK1 (UniProt P53667) | inactive: 0
40 | LZTFL1 (UniProt Q9NQ48) | inactive: 0
41 | LRRC8D (UniProt Q7L1W4) | inactive: 0
42 | KIAA0859 (UniProt Q8N6R0) | inactive: 0
43 | LOC90379 | inactive: 0
44 | LZIC (UniProt Q8WZA0) | inactive: 0
45 | KPNB1 (UniProt Q14974) | inactive: 0
46 | KLRAQ1 (UniProt Q6ZMI0) | inactive: 0
47 | LSM7 (UniProt Q9UK45) | inactive: 0
48 | MAGED2 (UniProt Q9UNF1) | inactive: 0
49 | KTI12 (UniProt Q96EK9) | inactive: 0
50 | LRRC41 (UniProt Q15345) | inactive: 0
51 | LRRC33 (UniProt Q86YC3) | inactive: 0
52 | MAEA (UniProt Q7L5Y9) | inactive: 0

Three entries picked at random from the list so far, as already listed:
Row | Target | dose-dependent thermal stabilisation call
16 | KIAA1609 (UniProt Q6P9B6) | inactive: 0
3 | KIF15 (UniProt Q9NS87) | inactive: 0
33 | KIDINS220 (UniProt Q9ULH0) | inactive: 0

Carrying on.

Row | Target | dose-dependent thermal stabilisation call
53 | LSM12 (UniProt Q3MHD2) | inactive: 0
54 | LARP5 (UniProt Q92615) | inactive: 0
55 | LEMD3 (UniProt Q9Y2U8) | inactive: 0
56 | LGALS8 (UniProt O00214) | inactive: 0
57 | KIAA1310 (UniProt Q9P2N6) | inactive: 0
58 | MAN1A2 (UniProt O60476) | inactive: 0
59 | L2HGDH (UniProt Q9H9P8) | active: 1
60 | LACTB (UniProt P83111) | inactive: 0
61 | KIAA0776 (UniProt O94874) | inactive: 0
62 | KIAA0841 (UniProt O94927) | inactive: 0
63 | LPP (UniProt Q93052) | inactive: 0
64 | KIAA1949 (UniProt Q6NYC8) | inactive: 0
65 | KIAA0754 | inactive: 0
66 | MAGED1 (UniProt Q9Y5V3) | inactive: 0
67 | LANCL2 (UniProt Q9NS86) | inactive: 0
68 | LANCL1 (UniProt O43813) | inactive: 0
69 | LRRFIP2 (UniProt Q9Y608) | inactive: 0
70 | KIAA1429 (UniProt Q69YN4) | inactive: 0
71 | LEO1 (UniProt Q8WVC0) | inactive: 0
72 | LRPPRC (UniProt P42704) | inactive: 0
73 | M6PRBP1 (UniProt O60664) | inactive: 0
74 | LCP1 (UniProt P13796) | inactive: 0
75 | LARP1 (UniProt Q6PKG0) | inactive: 0
76 | KIAA1524 (UniProt Q8TCG1) | inactive: 0
